The other results are listed elsewhere or left out. The main result of the screen is listed elsewhere. These columns were measured beside it and carry no call. The list favours compounds with an active or inconclusive main result. Potencies come from curve fits of mixed quality, noted in brackets.
Experiment: qHTS Assay for Lipid Storage Modulators in Drosophila S3 Cells;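 for cell number change: cells counted by Cell Tracker Red CMTPX staining in the red channel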
Details: BODIPY lipid droplet fluorescence, 18-24 h; for cell number change: measured here: cell count max response, cells fed with added oleic acid
Procedure, shortened: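 Drosophila S3 cells loaded with oleic acid (400 uM, as added) and compounds at several concentrations; lipid droplets imaged by 488-nm laser-scanning cytometry, 500–530 nm intensity and object ratio to cell channel. Percent activity normalized to 20 uM Triacsin C.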

[1] = measured here: lipid fluorescence (Fed channel) AC50, cells fed with added oleic acid
[2] = measured here: cell number channel AC50, cells fed with added oleic acid

Compound	cell number change [%]	AC50 [1]	AC50 [2]
CCCn1nnnc1NCc1cccc(OC)c1	-0.525	6.51 µM [rising, single point]	
Cc1cccc(N2C(=O)c3cccc4c(N(C)CCO)ccc(c34)C2=O)c1	-107	6.51 µM [falling, partial curve]	7.31 µM [falling, partial curve]
C/C(CC(=O)Nc1cccc2c1CCCC2)=N\NC(=O)c1cccc2ccccc12	11.7		6.51 µM [rising, single point]
CC(C)C(C)NC(=O)COc1ncnc2ccccc12 (configuration not stated)	25.2	23.1 µM [falling, partial curve]	0.259 µM [falling, full curve, poor fit]
O=C(Nc1ccc(Cl)cc1)N1CCOC12CCC1(CC2)OCCO1	15.7	16.4 µM [rising, partial curve]	
CC(C)C(=O)Nc1ccc(C(=O)N2CCCCCC2)cc1	10.1	0.58 µM [falling, single point]	
Cc1ccc(/C=C(\NC(=O)c2ccccc2)C(=O)NCC2CCCO2)o1 (configuration not stated)	6.37		
Cc1ccc(-n2c3c(cc(C(=O)Nc4cccc(C)n4)c2=O)C(=O)CCC3)cc1	9.99	5.8 µM [rising, single point]	
O=C(Nc1ccc(N2CCOCC2)cc1N1CCOCC1)c1ccc(Cl)cc1		29.1 µM [falling, single point]	
Cn1ncc(S(=O)(=O)Cc2ccccc2)c(Cl)c1=O	-41.4	18.4 µM [falling, partial curve, poor fit]	16.4 µM [falling, single point]
CC(=O)c1nc(N2C(=O)CC(Cc3ccccc3)C2=O)sc1C (configuration not stated)	-18.8	2.91 µM [falling, single point]	
O=C1CC(N2CCN(c3ccccc3Cl)CC2)C(=O)N1c1ccc(F)cc1 (configuration not stated)	86.4	3.26 µM [rising, full curve, poor fit]	29.1 µM [rising, single point]
COc1ccc(S(=O)(=O)NCc2ccc3c(c2)OCO3)cc1OC	41.4		
Cc1ccc(-c2nc3ccsc3c(=O)o2)cc1	-35.5	2.06 µM [falling, partial curve, poor fit]	8.2 µM [falling, partial curve]
Cc1nn(Cc2c(Cl)cccc2Cl)c(C)c1NC(=O)CCCn1nc(C)c([N+](=O)[O-])c1C	98	0.517 µM [rising, single point]	18.4 µM [rising, single point]
Nc1[nH]nc2nc(NCc3ccccc3)c3c(c12)CCN(Cc1ccccc1)C3	-23.5	2.06 µM [rising, single point]	
CC(C)CN(C(=O)CSc1nnc(C2CC2)n1-c1ccccc1)C1CCS(=O)(=O)C1 (configuration not stated)	-5.78	3.66 µM [falling, single point]	
O=C(NC(Cc1c[nH]c2ccccc12)C(=O)OCC(=O)c1cccc2ccccc12)c1cccs1 (configuration not stated)	10	6.51 µM [rising, partial curve, poor fit]	
CN1CCN(C(=O)/C=C\c2ccc(Cl)cc2)CC1		0.00517 µM [falling, full curve, poor fit]	
COC(CNC(=O)c1ccc2nc3ccccc3c(=O)n2c1)OC	-28.2		3.26 µM [falling, full curve, poor fit]
CN(C)c1ccc(C(C(=O)NCc2ccccc2)N(Cc2ccco2)C(=O)c2snc(C(N)=O)c2N)cc1 (configuration not stated)	-52.6		1.46 µM [falling, full curve]

Compounds from the list above containing an NH in an aromatic ring:
Compound	cell number change [%]	AC50 [1]	AC50 [2]
Nc1[nH]nc2nc(NCc3ccccc3)c3c(c12)CCN(Cc1ccccc1)C3	-23.5	2.06 µM [rising, single point]	
O=C(NC(Cc1c[nH]c2ccccc12)C(=O)OCC(=O)c1cccc2ccccc12)c1cccs1 (configuration not stated)	10	6.51 µM [rising, partial curve, poor fit]	

The listing continues:

Compound	cell number change [%]	AC50 [1]	AC50 [2]
COc1ccccc1N1CCN(CCCCOc2c(OC)cccc2OC)CC1	-1.56	0.731 µM [falling, full curve, poor fit]	
O=C1C2CC=CCC2C(=O)N1c1n[nH]c(CCc2ccccc2)n1 (configuration not stated)	12.2		
O=C(COC(=O)/C=C/c1ccc(OC(F)F)cc1)Nc1ccc(S(=O)(=O)N2CCCC2)cc1		32.6 µM [falling, single point]	0.58 µM [rising, single point]
N#CC1(NC(=O)COC(=O)c2nccnc2N)CCCCC1		5.8 µM [rising, single point]	
CCC(C)[C@@H](NC(=O)OC(C)(C)C)c1nnc(S(=O)(=O)Cc2cccc(C)c2)o1 (some centres not stated)	-88.9	25.9 µM [falling, partial curve]	25.9 µM [falling, partial curve]
CC(=O)OC1=Cc2c(ccc3ccc(=O)oc23)OC1(C)C	37.1		11.6 µM [rising, single point]
CCC(=O)NC(=S)Nc1cccc(Cl)c1N1CCCCC1	34.2	29.1 µM [rising, single point]	
c1ccc2c(Cn3ccnc3)cccc2c1	6.63	6.51 µM [rising, single point]	
COc1ccccc1N1CCN(Cc2cc(=O)c(OCC(=O)NC(C)C)co2)CC1	-9.07	25.9 µM [rising, single point]	
COc1cc(OC)c2c(c1)C(=O)c1cc(OC)cc(OC)c1C2=O	-11.1	2.06 µM [rising, partial curve]	
Cn1c(NC(=O)C[n+]2cc(-c3ccc(Cl)c(Cl)c3)n3c2CCC3)cc(=O)n(C)c1=O	-12.7	3.26 µM [falling, full curve, poor fit]	
CCOC(=O)c1c(SCC(=O)Nc2nc(C)cs2)nc(=O)[nH]c1C		0.651 µM [falling, full curve]	
CCOC(=O)C(C)Oc1ccc(C2NC(=O)NC(C)=C2C(=O)Nc2ccccc2C)cc1 (configuration not stated)	-14.4		
Cc1sc2ncnc(SCC(=O)N3CCCCC3)c2c1C	-18.1	29.1 µM [falling, partial curve, poor fit]	
Cc1cc(NC(=O)c2ccccc2C)no1	0.824	0.103 µM [falling, full curve, poor fit]	
CCOC(=O)C1=C(C)N(CCCC(=O)O)C(=O)NC1c1ccc(Cl)cc1 (configuration not stated)	4.49	0.651 µM [falling, full curve, poor fit]	
CN(C)S(=O)(=O)c1cccc(NC(=O)c2sccc2-c2ccccc2)c1	6.49		
Cc1nc(NC(=O)/C=C/c2ccccc2)sc1C(=O)N(C)C	45.4	9.2 µM [rising, partial curve]	7.31 µM [rising, partial curve]
Cc1csc(NC(=O)CCC(=O)N(CC(=O)NC2CCCC2)c2ccccc2)n1	-0.451	6.51 µM [rising, single point]	
Cc1ccc(C(=O)COC(=O)CNC(=O)Cc2ccccc2)cc1[N+](=O)[O-]	25.4		
CC(=O)NC1C(=O)N(CC(C)C)c2ccccc21 (configuration not stated)	-103		29.1 µM [falling, single point]

Compound	cell number change [%]	AC50 [1]	AC50 [2]
O=C(C1CCCN(Cc2ccc(F)cc2)C1)N1CCCCC1 (configuration not stated)	1.77	0.13 µM [falling, full curve, poor fit]	
COc1cc(/C=C/C(=O)OCC(=O)Nc2ccc3c(c2)OCCO3)ccc1O	22.6	29.1 µM [rising, single point]	
COc1ccc(C(c2c[nH]c3ccccc23)c2c[nH]c3ccccc23)cc1O	-50.4	29.1 µM [falling, single point]	32.6 µM [falling, single point]
CCOC(=O)CNC(=O)N1c2ccccc2Sc2ccccc21	7.76	0.58 µM [falling, full curve]	
COc1ccc(-n2ccnc2CN2CCN(C3CCCC3)C(CCO)C2)cc1 (configuration not stated)	8.01	6.51 µM [falling, single point]	
CN(C)c1ccc(C(O)Cc2nc3ccccc3n2C)cc1 (configuration not stated)	21.6		
Cc1ccc(C)c(S(=O)(=O)Nc2ccc(S(=O)(=O)Nc3onc(C)c3C)cc2)c1	-10.5	29.1 µM [falling, single point]	
O=S(=O)(c1ccccc1)N1CCN(CCc2ccccc2)CC1	-2.47		
Cc1cc(S(=O)(=O)NCCCN2CCOCC2)ccc1Br	1.9		
O=S(=O)(NCC1CCCO1)c1ccc(Cl)cc1 (configuration not stated)	1.57	6.51 µM [rising, partial curve, poor fit]	
Cc1ccc(-c2nc3cccnc3o2)cc1NC(=O)COc1ccc(Cl)cc1C	23.4	0.651 µM [rising, full curve]	
CC(C)C(NS(=O)(=O)c1cccc2nsnc12)C(=O)NC1CCCCC1 (configuration not stated)	-7.37		
NS(=O)(=O)c1ccc(CCNC(=O)c2ccccc2-c2ccccc2)cc1	19.6	1.16 µM [rising, single point]	1.84 µM [rising, partial curve]
O=C(NCc1ccccc1)C12CC3CC(CC(C3)C1)C2	-5.7		
O=S(=O)(CCc1ccccc1)/N=C/c1cccs1	0.068		
Cc1csc(NC(=O)c2ccco2)c1C(=O)c1ccccc1		6.51 µM [rising, single point]	
O=C(Nc1ccccc1)N1CCCN(c2ccc(C(F)(F)F)cn2)CC1	6.19	0.103 µM [falling, partial curve, poor fit]	
CCOc1ccc2nc(NC(=O)c3ccc(S(=O)(=O)N4CCOCC4)cc3)sc2c1	-4.48		
O=C(CSc1ccc2nnc(-c3cccs3)n2n1)N1CCCC1	-39.5	20.6 µM [falling, single point]	20.6 µM [falling, single point]
O=c1[nH]c(=O)n(C2C[C@H](O)[C@@H](CO)O2)cc1C(F)(F)F (some centres not stated)	-26.2	7.31 µM [falling, partial curve]	

Reference: PubChem BioAssay AID2685 (National Center for Advancing Translational Sciences (NCATS), 2010)
